The text below walks through data of patent US20050238581A1, “Dynamic hepatic recycling glucose tolerance test” (priority 2002, published 2005).

A short description of this data set: intraperitoneal hepatic recycling glucose tolerance test (HRGTT) with [1, 2-^13C2]-glucose load. Type of data set: in vivo, C57BL6 mice. As to conditions: liver cytosol, relative to actin, over the 3 hours of the test. As to the method:
Stable isotopes of the M2 isotopomer glucose was administered at 1 mg glucose/gm body weight by intraperitoneal injection. Animals were euthanized by an overdose of isoflurane anesthesia, and tissue from liver and skeletal muscle were rapidly dissected free, snap-frozen in liquid nitrogen, and stored at −80° C. until processed for isolation of RNA or glycogen. Cytosolic protein was extracted from the liver tissue after homogenization with 10 strikes in lysis buffer containing 0.25 M sucrose, I OmM Tris-HCL(pH7.4), 3 mM MgCL2, 0.1 mM PMSF, 20 mM NaF, 1 mM Na3VO4, 1 MM Na4P207, 1 μg/ml of leupeptin/aprotinin/pepstatin. The resulting cell lysate was filtered with 4 layers of cheesecloth. Nuclei were pelleted by centrifugation at 1000 g for 10 min. Mitochondria were precipitated by centrifugation at 15,000 g for 20 min from the supernatant. The cytosolic fraction was isolated as the supernatant obtained from last ultra-centrifugation at 100,000 g at 4° C. for 1 hr. Protein concentration from cytosol were measured by using an absorbance at 595 run (BCA kit from Pierce). 60 1 μg of protein extracts from cytosol were separated by 10% SDS-PAGE. The membrane blots were incubated with anti-GK at 1:2500 (v/v), anti-G6PDH at 1:2000 (v/v), anti-PEPCK at 1:500 (v/v), and anti-p-actin at 1:2000 (v/v), for either 1 hr in western washing buffer at RT or overnight at 4 C after blocking. The blots were hybridized with secondary antibodies coupled to horseradish peroxidase for 40 to 60 min at RT. Immunodetection was accomplished using enhanced chemiluminescence. Density of each band was determined by scanning the exposed film. The time course of glucose and lactate isotopomers in plasma, and glucose isotopomers in liver glycogen was determined using gas chromatography/mass spectrometry. […] The absorption of administered glucose was monitored by the time course of M2 isotopomer, and hepatic glucose recycling by the time course of M1 isotopomer of glucose.

In the case of `OC[C@H]1OC(O)[C@H](O)[C@@H](O)[C@@H]1O` (stereo partly drawn) [[1,2-^13C2]-glucose], the “drop of hepatic PEPCK expression, Western blot” value was 50%; the “rise of hepatic glucokinase (GK) expression, Western blot” value was “three-fold”; the “rise of hepatic glucose-6-phosphate dehydrogenase (G6PDH) expression, Western blot” value was 2.5 fold.
